Test results published in the supplement of paper PMC4604168 (melanoma cell lines).
This is one part of the list. Single values are uncertain, as repeats are few or missing.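 The apoptosis fraction was the count of cleaved-PARP antibody-stained nuclei relative to all DNA-stained nuclei, imaged in 1,536-well plates. Screening doses were set so most cells survived, and baseline and induced cleaved-PARP levels vary greatly across cell lines.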

Tests used:
Assay in all cases: cleaved PARP positive nuclei fraction relative to DMSO control; melanoma cells; higher = more apoptosis
Settings in all cases: library dose: low library concentration; 72 h
MZ2-MEL = test system: MZ2-MEL
MeWo = test system: MeWo
RPMI7951 = test system: RPMI7951
RVH-421 = test system: RVH-421
SkMel28 = test system: SkMel28
SkMel2 = test system: SkMel2
SkMel30 = test system: SkMel30
SkMel5 = test system: SkMel5
UACC257 = test system: UACC257
UACC62 = test system: UACC62
WM115 = test system: WM115
WM1716 = test system: WM1716
WM1745 = test system: WM1745
WM3526 = test system: WM3526
WM3619 = test system: WM3619
WM451Lu = test system: WM451Lu

Compound | cleaved PARP positive nuclei fraction (MZ2-MEL) [%] | cleaved PARP positive nuclei fraction (MeWo) [%] | cleaved PARP positive nuclei fraction (RPMI7951) [%] | cleaved PARP positive nuclei fraction (RVH-421) [%] | cleaved PARP positive nuclei fraction (SkMel28) [%] | cleaved PARP positive nuclei fraction (SkMel2) [%] | cleaved PARP positive nuclei fraction (SkMel30) [%] | cleaved PARP positive nuclei fraction (SkMel5) [%] | cleaved PARP positive nuclei fraction (UACC257) [%] | cleaved PARP positive nuclei fraction (UACC62) [%] | cleaved PARP positive nuclei fraction (WM115) [%] | cleaved PARP positive nuclei fraction (WM1716) [%] | cleaved PARP positive nuclei fraction (WM1745) [%] | cleaved PARP positive nuclei fraction (WM3526) [%] | cleaved PARP positive nuclei fraction (WM3619) [%] | cleaved PARP positive nuclei fraction (WM451Lu) [%]
CCCS(=O)(=O)Nc1ccc(F)c(C(=O)c2c[nH]c3ncc(Cl)cc23)c1F + COc1ccc2c(c1)CCC1C2CCC2(C)C(NCCCCCCN3C(=O)C=CC3=O)CCC12 [U73122] (first compound 0.08 µM, partner dose 0.4 µM) | 95.1 | 56.3 | 34.7 | 104 | 164 | 133 | 135 | 68.6 | 147 | 292 | 110 | 63 | 67.5 | 70.8 | 93.7 | 73.6
O=C(O)[C@@H]1[O][Sb](=[O])([O][Sb]2(=[O])[O][C@H]([C@H](O)CO)[C@H](O)[C@H](C(=O)O)[O]2)[O][C@H]([C@H](O)CO)[C@@H]1O (stereo partly drawn) [stibogluconate] + CCN(CC)CCCCNc1ncc2cc(-c3cc(OC)cc(OC)c3)c(NC(=O)NC(C)(C)C)nc2n1 [PD173074] (first compound 2 µM, partner dose 0.1 µM) | 83.1 | 27.5 | 92.2 | 145 | 106 | 82.3 | 65.5 | 70.7 | 79.8 | 173 | 61.5 | 79.6 | 88.3 | 74.3 | 84.8 | 125
CS(=O)(=O)CCNCc1ccc(-c2ccc3ncnc(Nc4ccc(OCc5cccc(F)c5)c(Cl)c4)c3c2)o1 [lapatinib] + C=CCn1c(=O)c2cnc(Nc3ccc(N4CCN(C)CC4)cc3)nc2n1-c1cccc(C(C)(C)O)n1 [MK1775] (first compound 0.8 µM, partner dose 0.02 µM) | 85.1 | 172 | 69.4 | 37.1 | 200 | 72.1 | 71.1 | 205 | 95.6 | 74 | 53.7 | 118 | 101 | 27.5 | 119 | 46.2
CS(=O)(=O)CCNCc1ccc(-c2ccc3ncnc(Nc4ccc(OCc5cccc(F)c5)c(Cl)c4)c3c2)o1 [lapatinib] + O=C1NC(=O)/C(=C/c2ccc(-c3ccc(F)cc3O)o2)S1 [AS252424] (first compound 0.8 µM, partner dose 1 µM) | 101 | 151 | 72.4 | 180 | 87.9 | 95.1 | 37.8 | 219 | 211 | 140 | 57.5 | 33 | 77.4 | 172 | 110 | 306
CN1CCN(c2ccc3nc(-c4c(N)c5c(F)cccc5[nH]c4=O)[nH]c3c2)CC1 [Dovitinib] + CCCCCCCCCCCC1=C(O)C(=O)C=C(O)C1=O [Embelin] (first compound 0.1 µM, partner dose 1.2 µM) | 65.8 | 97.5 | 213 | 45.8 | 86.7 | 120 | 173 | 162 | 255 | 125 | 112 | 62.3 | 137 | 37.9 | 105 | 23.8
C=C(c1ccc(C(=O)O)cc1)c1cc2c(cc1C)C(C)(C)CCC2(C)C [Bexarotene] + CC(C)CCN1c2nc(Nc3cc(F)c(O)c(F)c3)ncc2N(C)C(=O)C1C [BID1870] (first compound 2 µM, partner dose 0.2 µM) | 164 | 150 | 160 | 68.6 | 218 | 81.7 | 181 | 76.8 | 137 | 162 | 197 | 396 | 103 | 91 | 166 | 132
C=C(c1ccc(C(=O)O)cc1)c1cc2c(cc1C)C(C)(C)CCC2(C)C [Bexarotene] + COc1cc2c(Oc3ccc4[nH]c(C)cc4c3F)ncnc2cc1OCCCN1CCCC1 [cediranib] (first compound 2 µM, partner dose 0.4 µM) | 133 | 51.1 | 76.3 | 98.3 | 74 | 242 | 130 | 322 | 74.8 | 86.7 | 94.7 | 169 | 100 | 103 | 105 | 36.2
Nc1ccn([C@@H]2O[C@H](CO)[C@@H](O)C2(F)F)c(=O)n1 [gemcitabine] + CCc1ccc(CCOc2ccc(CC3SC(=O)NC3=O)cc2)nc1 [pioglitazone] (first compound 0.0004 µM, partner dose 2 µM) | 120 | 101 | 88.7 | 72.4 | 124 | 160 | 19.1 | 72.2 | 86.1 | 416 | 211 | 213 | 114 | 137 | 96.5 | 33.4
CS(=O)(=O)CCNCc1ccc(-c2ccc3ncnc(Nc4ccc(OCc5cccc(F)c5)c(Cl)c4)c3c2)o1 [lapatinib] + CC(C)CCN1c2nc(Nc3cc(F)c(O)c(F)c3)ncc2N(C)C(=O)C1C [BID1870] (first compound 0.8 µM, partner dose 0.2 µM) | 117 | 650 | 52.4 | 138 | 221 | 122 | 53.8 | 88.8 | 340 | 92 | 164 | 44.1 | 96.5 | 88.5 | 109 | 69.3
O=C(O)[C@@H]1[O][Sb](=[O])([O][Sb]2(=[O])[O][C@H]([C@H](O)CO)[C@H](O)[C@H](C(=O)O)[O]2)[O][C@H]([C@H](O)CO)[C@@H]1O (stereo partly drawn) [stibogluconate] + CCCCCCCCCCCC1=C(O)C(=O)C=C(O)C1=O [Embelin] (first compound 2 µM, partner dose 1.2 µM) | 62.7 | 87 | 147 | 146 | 64 | 171 | 98 | 75.8 | 112 | 117 | 55.3 | 72.2 | 85.5 | 136 | 75.7 | 61.8
CNC(=O)c1cc(Oc2ccc(NC(=O)Nc3ccc(Cl)c(C(F)(F)F)c3)cc2)ccn1 [sorafenib] + CO[C@@H]1[C@H](N(C)C(=O)c2ccccc2)C[C@H]2O[C@]1(C)n1c3ccccc3c3c4c(c5c6ccccc6n2c5c31)C(=O)NC4 [Midostaurin] (first compound 0.4 µM, partner dose 0.08 µM) | 56.8 | 192 | 84.2 | 333 | 352 | 55.9 | 23.7 | 276 | 383 | 174 | 115 | 180 | 128 | 61.4 | 128 | 293
CC(C)C[C@H](NC(=O)[C@H](Cc1ccccc1)NC(=O)c1cnccn1)B(O)O [Bortezomib] + CCCCCCCCCCCC1=C(O)C(=O)C=C(O)C1=O [Embelin] (first compound 0.001 µM, partner dose 1.2 µM) | 99.9 | 83.9 | 68.3 | 68.2 | 64.7 | 81.5 | 146 | 77 | 44.4 | 66.2 | 64.1 | 19.2 | 79 | 71 | 82.3 | 79.8
O=C(O)[C@@H]1[O][Sb](=[O])([O][Sb]2(=[O])[O][C@H]([C@H](O)CO)[C@H](O)[C@H](C(=O)O)[O]2)[O][C@H]([C@H](O)CO)[C@@H]1O (stereo partly drawn) [stibogluconate] + CCc1ccc(CCOc2ccc(CC3SC(=O)NC3=O)cc2)nc1 [pioglitazone] (first compound 2 µM, partner dose 2 µM) | 89.2 | 26.2 | 65.3 | 215 | 129 | 112 | 20.1 | 130 | 104 | 58.3 | 84.4 | 104 | 183 | 76.9 | 94.4 | 41.1
CS(=O)(=O)CCNCc1ccc(-c2ccc3ncnc(Nc4ccc(OCc5cccc(F)c5)c(Cl)c4)c3c2)o1 [lapatinib] + O=C(Nc1cccc(Cl)c1)Nc1ncc(CCNc2ncnc3ccsc23)s1 [SNS314] (first compound 0.8 µM, partner dose 0.0008 µM) | 182 | 106 | 66 | 128 | 130 | 69.6 | 70.7 | 68.3 | 240 | 43.4 | 143 | 172 | 92.7 | 55.7 | 84.2 | 75.6
Cc1cc(Nc2cc(N3CCN(C)CC3)nc(/C=C/c3ccccc3)n2)n[nH]1 + O=C(O)c1ccc(-c2c[nH]c3ncc(-c4ccccc4)cc23)cc1C1CCCC1 [GSK650394] (first compound 0.04 µM, partner dose 0.16 µM) | 58.3 | 101 | 134 | 45.5 | 75.4 | 61 | 113 | 68.5 | 104 | 74.7 | 108 | 99.4 | 84.3 | 63.9 | 95.1 | 71.3
CS(=O)(=O)CCNCc1ccc(-c2ccc3ncnc(Nc4ccc(OCc5cccc(F)c5)c(Cl)c4)c3c2)o1 [lapatinib] + COc1ccc(-c2ccc3c(N4CCOCC4)nc(N4C[C@@H](C)O[C@@H](C)C4)nc3n2)cc1CO [KU0063794] (first compound 0.8 µM, partner dose 0.02 µM) | 108 | 61.9 | 185 | 108 | 56 | 118 | 257 | 131 | 50.4 | 50.6 | 90.8 | 45.1 | 79.2 | 91.5 | 115 | 130
CC(C)C[C@H](NC(=O)[C@H](Cc1ccccc1)NC(=O)c1cnccn1)B(O)O [Bortezomib] + Cc1ccc(NC(=O)c2cccc(N(C)C)c2)cc1NC(=O)c1ccc(O)cc1 [ZM336372] (first compound 0.001 µM, partner dose 2 µM) | 538 | 77.9 | 64.9 | 347 | 35.1 | 71.7 | 68.5 | 156 | 229 | 92.1 | 205 | 1080 | 177 | 135 | 670 | 118
CCCS(=O)(=O)Nc1ccc(F)c(C(=O)c2c[nH]c3ncc(Cl)cc23)c1F + Cc1cc([N+](=O)[O-])ccc1NS(=O)(=O)c1cc(Cl)ccc1Cl [FH535] (first compound 0.08 µM, partner dose 1 µM) | 79.2 | 23.7 | 194 | 44.7 | 301 | 77.6 | 85.6 | 80.2 | 57.1 | 397 | 174 | 46.3 | 97.8 | 110 | 128 | 35.4

Two entries from above, as tab-separated lines:
Compound	cleaved PARP positive nuclei fraction (MZ2-MEL) [%]	cleaved PARP positive nuclei fraction (MeWo) [%]	cleaved PARP positive nuclei fraction (RPMI7951) [%]	cleaved PARP positive nuclei fraction (RVH-421) [%]	cleaved PARP positive nuclei fraction (SkMel28) [%]	cleaved PARP positive nuclei fraction (SkMel2) [%]	cleaved PARP positive nuclei fraction (SkMel30) [%]	cleaved PARP positive nuclei fraction (SkMel5) [%]	cleaved PARP positive nuclei fraction (UACC257) [%]	cleaved PARP positive nuclei fraction (UACC62) [%]	cleaved PARP positive nuclei fraction (WM115) [%]	cleaved PARP positive nuclei fraction (WM1716) [%]	cleaved PARP positive nuclei fraction (WM1745) [%]	cleaved PARP positive nuclei fraction (WM3526) [%]	cleaved PARP positive nuclei fraction (WM3619) [%]	cleaved PARP positive nuclei fraction (WM451Lu) [%]
Cc1cc(Nc2cc(N3CCN(C)CC3)nc(/C=C/c3ccccc3)n2)n[nH]1 + O=C(O)c1ccc(-c2c[nH]c3ncc(-c4ccccc4)cc23)cc1C1CCCC1 [GSK650394] (first compound 0.04 µM, partner dose 0.16 µM)	58.3	101	134	45.5	75.4	61	113	68.5	104	74.7	108	99.4	84.3	63.9	95.1	71.3
CS(=O)(=O)CCNCc1ccc(-c2ccc3ncnc(Nc4ccc(OCc5cccc(F)c5)c(Cl)c4)c3c2)o1 [lapatinib] + COc1ccc(-c2ccc3c(N4CCOCC4)nc(N4C[C@@H](C)O[C@@H](C)C4)nc3n2)cc1CO [KU0063794] (first compound 0.8 µM, partner dose 0.02 µM)	108	61.9	185	108	56	118	257	131	50.4	50.6	90.8	45.1	79.2	91.5	115	130
